{"source": "PubChem BioAssay AID1259276 (Sanger Institute, 2017)", "screen": "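Kinome-wide search for kinases colon cancer cells need, and for drug partners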 (primary screen)", "cell system": "human C2BBe1 colorectal cancer cells", "reagent": "siRNA pool against human genes", "treatment": "DMSO vehicle, or one anchor drug: BYL719 at 1 µM, cetuximab at 5 µg/ml, or trametinib at 10 nM; exposure length not stated", "detection": "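Cell viability as a fraction of non-targeting control wells, mean of replicates, also as a control-based robust z-score, plus a synergy score for each anchor drug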", "scale": "viability robust z-score, siRNA alone: higher = more viable cells after knock-down", "active means": "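a siRNA pool tested without drug is essential if its viability robust z-score falls under -3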", "calls": "active = essential (siRNA alone); inactive = no change (siRNA alone)", "note": "Shown is a random part of 794 reagents tested. 24 of them (3%) were called active. 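Calls come only from the siRNA-alone arm; drug synergy scores do not affect them.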 A number with no mark means an inactive call. Further read-outs or replicates are left out here. The record does not give: the amount of reagent, the time to read-out."}
{"gene knocked down": "PRKCZ", "viability robust z-score, siRNA alone": 0.472}
{"gene knocked down": "PIP4K2C", "viability robust z-score, siRNA alone": 0.472}
{"gene knocked down": "MKNK2", "viability robust z-score, siRNA alone": -0.599}
{"gene knocked down": "JAK2", "viability robust z-score, siRNA alone": -2.51}
{"gene knocked down": "CLK1", "viability robust z-score, siRNA alone": -1.73}
{"gene knocked down": "ITPKC", "viability robust z-score, siRNA alone": 0.472}
{"gene knocked down": "GRK1", "viability robust z-score, siRNA alone": 0.472}
{"gene knocked down": "WNK1", "viability robust z-score, siRNA alone": 0.472}
{"gene knocked down": "PNCK", "viability robust z-score, siRNA alone": 0.472}
{"gene knocked down": "NEK4", "viability robust z-score, siRNA alone": 0.472}
{"gene knocked down": "HSPB8", "viability robust z-score, siRNA alone": -2.9}
{"gene knocked down": "ZAP70", "viability robust z-score, siRNA alone": 0.472}
{"gene knocked down": "CDK8", "viability robust z-score, siRNA alone": 0.472}
{"gene knocked down": "COQ8B", "viability robust z-score, siRNA alone": -0.0265}
{"gene knocked down": "FCSK", "viability robust z-score, siRNA alone": 0.472}
{"gene knocked down": "EIF2AK3", "viability robust z-score, siRNA alone": 0.472}
{"gene knocked down": "CSNK1E", "viability robust z-score, siRNA alone": -1.27}
{"gene knocked down": "EPHA1", "viability robust z-score, siRNA alone": 0.472}
{"gene knocked down": "HCK", "viability robust z-score, siRNA alone": 0.472}
{"gene knocked down": "CERT1", "viability robust z-score, siRNA alone": 0.472}
{"gene knocked down": "PRKCA", "viability robust z-score, siRNA alone": -1.9}
{"gene knocked down": "PRKD1", "viability robust z-score, siRNA alone": 0.472}
{"gene knocked down": "DAPK3", "viability robust z-score, siRNA alone": 0.472}
{"gene knocked down": "DSTYK", "viability robust z-score, siRNA alone": 0.472}
{"gene knocked down": "NEK6", "viability robust z-score, siRNA alone": "-3.15 (active)"}
{"gene knocked down": "MELK", "viability robust z-score, siRNA alone": 0.472}
{"gene knocked down": "PINK1", "viability robust z-score, siRNA alone": 0.472}
{"gene knocked down": "VRK1", "viability robust z-score, siRNA alone": 0.472}

Part of the list above in another layout.
CSNK1E — viability robust z-score, siRNA alone: -1.27
EPHA1 — viability robust z-score, siRNA alone: 0.472
